In assay [1] the target is VEGF receptor 1 (VEGFR1) (human (endogenous in HUVEC)) (UniProt P17948). The assay is described as follows: co-IP; endogenous proteins; HUVECs (siCon or siSALM4 transfected, stimulated with VEGF-A) lysed in NP-40 lysis buffer (50 mM Tris-Cl pH 8.0, 150 mM NaCl, 1% NP-40); immunoprecipitated with antibodies against NRP1, NRP2, VEGFR1, VEGFR2 or IgG at 4°C overnight, protein A agarose; Western blot. In general terms: In western blotting, separated proteins are transferred to a membrane and probed.

By UniProt entry, the sequences of proteins in these tests, tags left out. Residues count along the entry.
UniProt P17948, residues 27-1338: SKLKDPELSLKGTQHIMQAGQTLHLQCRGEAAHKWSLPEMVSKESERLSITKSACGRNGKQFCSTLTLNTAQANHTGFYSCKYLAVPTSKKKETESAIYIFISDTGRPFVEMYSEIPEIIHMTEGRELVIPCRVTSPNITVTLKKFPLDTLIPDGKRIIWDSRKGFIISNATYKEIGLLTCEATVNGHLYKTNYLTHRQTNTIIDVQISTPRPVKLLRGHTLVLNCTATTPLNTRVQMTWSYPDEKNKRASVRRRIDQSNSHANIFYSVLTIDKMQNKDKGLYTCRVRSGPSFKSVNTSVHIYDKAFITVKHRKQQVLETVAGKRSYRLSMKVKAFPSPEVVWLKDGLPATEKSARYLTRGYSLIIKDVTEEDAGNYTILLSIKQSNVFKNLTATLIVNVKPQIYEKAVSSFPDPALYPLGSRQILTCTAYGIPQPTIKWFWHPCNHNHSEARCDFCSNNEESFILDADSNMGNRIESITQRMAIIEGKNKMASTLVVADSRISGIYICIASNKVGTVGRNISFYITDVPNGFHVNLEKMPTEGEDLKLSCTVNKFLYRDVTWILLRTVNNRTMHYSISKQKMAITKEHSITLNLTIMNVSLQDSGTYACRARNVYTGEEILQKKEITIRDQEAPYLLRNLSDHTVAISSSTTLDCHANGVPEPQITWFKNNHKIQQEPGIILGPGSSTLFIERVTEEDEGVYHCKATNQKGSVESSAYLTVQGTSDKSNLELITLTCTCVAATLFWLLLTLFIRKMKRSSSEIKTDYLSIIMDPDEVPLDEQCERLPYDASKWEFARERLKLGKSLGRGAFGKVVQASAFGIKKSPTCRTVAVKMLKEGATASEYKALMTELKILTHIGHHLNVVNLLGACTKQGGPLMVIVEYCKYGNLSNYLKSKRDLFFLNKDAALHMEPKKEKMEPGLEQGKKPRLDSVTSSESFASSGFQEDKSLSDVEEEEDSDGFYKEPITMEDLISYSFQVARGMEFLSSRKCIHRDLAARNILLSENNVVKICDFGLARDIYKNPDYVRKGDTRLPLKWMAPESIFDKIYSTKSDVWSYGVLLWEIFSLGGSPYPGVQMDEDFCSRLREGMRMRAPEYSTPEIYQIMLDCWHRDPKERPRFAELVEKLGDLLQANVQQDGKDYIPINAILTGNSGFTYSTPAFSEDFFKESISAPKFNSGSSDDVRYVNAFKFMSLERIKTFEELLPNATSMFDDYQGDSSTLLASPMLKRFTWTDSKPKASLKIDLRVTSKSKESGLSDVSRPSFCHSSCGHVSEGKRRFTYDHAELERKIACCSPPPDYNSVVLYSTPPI
UniProt P23467, residues 23-1997: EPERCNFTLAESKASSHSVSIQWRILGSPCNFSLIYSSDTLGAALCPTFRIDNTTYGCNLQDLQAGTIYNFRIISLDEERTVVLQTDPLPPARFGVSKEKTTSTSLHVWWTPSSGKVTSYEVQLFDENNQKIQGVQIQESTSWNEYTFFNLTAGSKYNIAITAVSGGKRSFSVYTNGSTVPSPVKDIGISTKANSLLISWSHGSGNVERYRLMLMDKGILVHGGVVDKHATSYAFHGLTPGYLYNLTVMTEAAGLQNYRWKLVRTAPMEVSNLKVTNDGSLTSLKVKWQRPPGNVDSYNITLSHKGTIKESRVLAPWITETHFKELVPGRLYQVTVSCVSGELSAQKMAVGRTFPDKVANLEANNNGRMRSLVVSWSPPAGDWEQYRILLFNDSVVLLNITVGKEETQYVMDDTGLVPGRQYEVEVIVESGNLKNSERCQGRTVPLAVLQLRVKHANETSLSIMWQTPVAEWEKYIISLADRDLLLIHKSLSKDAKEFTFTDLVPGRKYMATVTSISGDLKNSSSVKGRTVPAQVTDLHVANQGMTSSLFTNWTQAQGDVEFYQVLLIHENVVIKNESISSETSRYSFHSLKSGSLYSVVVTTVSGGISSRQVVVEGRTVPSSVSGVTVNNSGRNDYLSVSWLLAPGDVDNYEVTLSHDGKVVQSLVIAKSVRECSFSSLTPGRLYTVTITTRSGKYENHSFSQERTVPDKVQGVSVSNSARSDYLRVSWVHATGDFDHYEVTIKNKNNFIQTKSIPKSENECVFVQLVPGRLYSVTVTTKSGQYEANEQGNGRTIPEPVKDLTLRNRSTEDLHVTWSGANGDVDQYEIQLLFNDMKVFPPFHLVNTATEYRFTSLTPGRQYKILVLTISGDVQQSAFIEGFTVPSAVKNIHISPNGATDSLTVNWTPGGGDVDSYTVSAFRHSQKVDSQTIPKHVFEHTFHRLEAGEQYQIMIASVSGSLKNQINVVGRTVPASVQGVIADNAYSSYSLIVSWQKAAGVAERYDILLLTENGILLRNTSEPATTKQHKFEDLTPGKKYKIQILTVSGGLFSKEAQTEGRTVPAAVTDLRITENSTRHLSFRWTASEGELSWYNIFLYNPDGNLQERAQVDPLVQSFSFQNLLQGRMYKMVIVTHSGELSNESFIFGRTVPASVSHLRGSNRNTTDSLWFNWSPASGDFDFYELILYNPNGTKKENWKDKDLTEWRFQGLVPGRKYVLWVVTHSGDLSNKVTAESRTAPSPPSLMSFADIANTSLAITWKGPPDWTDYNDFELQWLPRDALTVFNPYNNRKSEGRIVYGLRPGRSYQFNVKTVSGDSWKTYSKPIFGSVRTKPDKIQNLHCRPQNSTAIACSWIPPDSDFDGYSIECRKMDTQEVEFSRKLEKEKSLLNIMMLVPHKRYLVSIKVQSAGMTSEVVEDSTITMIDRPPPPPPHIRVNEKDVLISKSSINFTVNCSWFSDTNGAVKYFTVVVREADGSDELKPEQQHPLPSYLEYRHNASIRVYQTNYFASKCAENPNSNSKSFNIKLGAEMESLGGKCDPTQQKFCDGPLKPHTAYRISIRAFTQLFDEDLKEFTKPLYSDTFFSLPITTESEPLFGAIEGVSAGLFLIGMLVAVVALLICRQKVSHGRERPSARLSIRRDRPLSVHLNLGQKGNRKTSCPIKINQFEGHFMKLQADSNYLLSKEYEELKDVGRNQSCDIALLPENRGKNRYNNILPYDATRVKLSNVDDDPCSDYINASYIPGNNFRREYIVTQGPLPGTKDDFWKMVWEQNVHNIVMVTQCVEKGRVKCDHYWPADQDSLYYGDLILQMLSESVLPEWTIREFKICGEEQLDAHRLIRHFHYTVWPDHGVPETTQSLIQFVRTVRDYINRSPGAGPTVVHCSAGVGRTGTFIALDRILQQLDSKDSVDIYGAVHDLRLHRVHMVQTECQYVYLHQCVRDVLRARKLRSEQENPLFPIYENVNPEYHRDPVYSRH
UniProt P35968, residues 20-1356: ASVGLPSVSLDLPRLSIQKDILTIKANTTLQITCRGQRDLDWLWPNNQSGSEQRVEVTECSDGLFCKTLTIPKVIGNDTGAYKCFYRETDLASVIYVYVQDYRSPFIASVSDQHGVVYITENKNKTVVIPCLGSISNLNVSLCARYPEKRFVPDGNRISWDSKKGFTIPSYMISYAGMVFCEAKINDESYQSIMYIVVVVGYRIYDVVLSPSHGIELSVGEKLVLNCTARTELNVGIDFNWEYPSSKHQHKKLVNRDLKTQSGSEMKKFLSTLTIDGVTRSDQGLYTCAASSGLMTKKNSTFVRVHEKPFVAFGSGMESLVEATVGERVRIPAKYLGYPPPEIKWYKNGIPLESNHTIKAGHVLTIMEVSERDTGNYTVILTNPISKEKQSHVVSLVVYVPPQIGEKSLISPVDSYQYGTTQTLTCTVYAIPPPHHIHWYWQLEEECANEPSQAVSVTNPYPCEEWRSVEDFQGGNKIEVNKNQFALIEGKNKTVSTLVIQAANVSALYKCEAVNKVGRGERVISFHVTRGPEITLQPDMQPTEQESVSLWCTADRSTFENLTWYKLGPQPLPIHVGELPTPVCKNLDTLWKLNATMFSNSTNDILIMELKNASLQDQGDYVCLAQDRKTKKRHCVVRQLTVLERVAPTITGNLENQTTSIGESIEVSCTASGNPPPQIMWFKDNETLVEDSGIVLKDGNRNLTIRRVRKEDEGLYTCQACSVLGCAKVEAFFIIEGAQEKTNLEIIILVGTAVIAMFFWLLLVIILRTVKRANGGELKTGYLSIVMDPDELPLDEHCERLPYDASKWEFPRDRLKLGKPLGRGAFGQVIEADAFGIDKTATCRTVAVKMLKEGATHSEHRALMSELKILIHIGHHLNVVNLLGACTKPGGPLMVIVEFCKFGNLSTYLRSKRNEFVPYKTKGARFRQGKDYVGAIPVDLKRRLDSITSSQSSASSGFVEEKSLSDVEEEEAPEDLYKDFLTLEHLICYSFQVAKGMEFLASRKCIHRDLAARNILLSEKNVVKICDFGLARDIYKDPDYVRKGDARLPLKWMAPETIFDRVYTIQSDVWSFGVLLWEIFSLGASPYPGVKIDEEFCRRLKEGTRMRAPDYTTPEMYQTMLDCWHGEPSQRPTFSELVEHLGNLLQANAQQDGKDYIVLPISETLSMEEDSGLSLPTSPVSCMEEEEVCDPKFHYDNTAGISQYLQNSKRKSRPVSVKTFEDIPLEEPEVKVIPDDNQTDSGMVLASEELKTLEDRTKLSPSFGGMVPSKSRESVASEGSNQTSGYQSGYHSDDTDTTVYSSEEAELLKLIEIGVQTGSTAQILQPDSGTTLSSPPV
UniProt O14786, residues 22-923: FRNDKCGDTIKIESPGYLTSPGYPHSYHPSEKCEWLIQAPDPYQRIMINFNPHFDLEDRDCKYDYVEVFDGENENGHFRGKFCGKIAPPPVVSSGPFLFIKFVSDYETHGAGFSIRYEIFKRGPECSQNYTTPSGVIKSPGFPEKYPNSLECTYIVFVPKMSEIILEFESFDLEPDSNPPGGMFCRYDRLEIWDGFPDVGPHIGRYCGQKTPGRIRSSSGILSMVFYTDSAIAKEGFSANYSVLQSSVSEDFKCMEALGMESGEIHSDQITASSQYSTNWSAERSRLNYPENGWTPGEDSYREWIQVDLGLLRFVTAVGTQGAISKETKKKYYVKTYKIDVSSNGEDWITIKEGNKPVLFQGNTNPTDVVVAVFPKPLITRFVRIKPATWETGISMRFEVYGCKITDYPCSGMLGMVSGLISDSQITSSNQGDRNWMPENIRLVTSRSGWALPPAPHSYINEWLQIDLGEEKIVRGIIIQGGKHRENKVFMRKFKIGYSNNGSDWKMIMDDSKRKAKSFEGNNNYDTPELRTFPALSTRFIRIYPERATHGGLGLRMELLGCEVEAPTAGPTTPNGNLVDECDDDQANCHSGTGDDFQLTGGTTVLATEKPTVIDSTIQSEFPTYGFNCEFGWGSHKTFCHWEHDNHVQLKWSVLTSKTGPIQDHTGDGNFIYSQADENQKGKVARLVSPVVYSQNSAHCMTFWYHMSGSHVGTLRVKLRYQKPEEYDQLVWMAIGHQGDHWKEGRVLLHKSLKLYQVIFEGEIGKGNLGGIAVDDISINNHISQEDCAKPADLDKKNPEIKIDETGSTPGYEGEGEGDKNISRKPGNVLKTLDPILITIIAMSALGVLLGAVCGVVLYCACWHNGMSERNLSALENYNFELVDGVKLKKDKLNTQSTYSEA

The target of assay [2] is VE–protein tyrosine phosphatase (VE-PTP) (human (endogenous in HUVEC)) (UniProt P23467). The assay is described as follows: co-IP; HUVEC lysate; VE-PTP and PTP1B antibodies used for immunoprecipitation; Western blot for SALM4.
In assay [3] the target is T1, PTP1B (human (endogenous in HUVEC)) (UniProt P18031).
T1 sequence: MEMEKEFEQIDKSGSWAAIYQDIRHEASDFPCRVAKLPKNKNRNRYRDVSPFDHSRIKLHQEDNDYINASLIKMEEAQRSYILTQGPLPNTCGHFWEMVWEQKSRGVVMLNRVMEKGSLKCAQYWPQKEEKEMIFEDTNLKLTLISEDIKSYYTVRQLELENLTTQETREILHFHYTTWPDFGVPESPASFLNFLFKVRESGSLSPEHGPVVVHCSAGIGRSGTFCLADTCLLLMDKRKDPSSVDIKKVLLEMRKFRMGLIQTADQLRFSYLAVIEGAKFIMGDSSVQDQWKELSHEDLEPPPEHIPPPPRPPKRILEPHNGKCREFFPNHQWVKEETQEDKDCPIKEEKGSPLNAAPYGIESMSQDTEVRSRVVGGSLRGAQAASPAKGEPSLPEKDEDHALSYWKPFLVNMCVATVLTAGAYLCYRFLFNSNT
Described as above.

Assay [4] deals with T2, neuropilin (NRP) 2 (human (endogenous in HUVEC)) (UniProt O60462).
T2 sequence: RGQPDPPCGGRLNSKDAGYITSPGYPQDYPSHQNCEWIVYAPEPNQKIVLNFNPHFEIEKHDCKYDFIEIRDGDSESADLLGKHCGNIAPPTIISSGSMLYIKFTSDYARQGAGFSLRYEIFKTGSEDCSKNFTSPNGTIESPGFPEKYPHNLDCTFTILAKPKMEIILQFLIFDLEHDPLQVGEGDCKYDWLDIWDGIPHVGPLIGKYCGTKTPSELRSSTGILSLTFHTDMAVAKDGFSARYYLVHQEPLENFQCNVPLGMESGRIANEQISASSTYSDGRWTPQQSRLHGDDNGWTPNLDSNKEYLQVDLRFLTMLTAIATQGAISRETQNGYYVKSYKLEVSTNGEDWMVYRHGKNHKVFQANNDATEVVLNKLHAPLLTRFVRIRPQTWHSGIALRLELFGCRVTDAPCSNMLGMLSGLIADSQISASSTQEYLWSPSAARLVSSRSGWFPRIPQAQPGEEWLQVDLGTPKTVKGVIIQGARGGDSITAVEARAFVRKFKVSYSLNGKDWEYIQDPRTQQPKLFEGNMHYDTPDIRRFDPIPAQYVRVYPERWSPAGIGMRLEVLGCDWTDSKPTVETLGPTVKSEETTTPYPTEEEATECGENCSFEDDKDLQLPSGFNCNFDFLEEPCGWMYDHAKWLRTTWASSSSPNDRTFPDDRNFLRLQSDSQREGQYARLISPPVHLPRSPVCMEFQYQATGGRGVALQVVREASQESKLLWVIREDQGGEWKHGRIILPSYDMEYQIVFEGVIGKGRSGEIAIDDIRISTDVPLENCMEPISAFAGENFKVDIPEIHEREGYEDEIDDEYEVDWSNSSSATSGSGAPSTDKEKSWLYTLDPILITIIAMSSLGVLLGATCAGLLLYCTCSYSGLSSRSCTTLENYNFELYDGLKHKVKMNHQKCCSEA
The assay is described as follows: co-IP; endogenous proteins; HUVECs (siCon or siSALM4 transfected, stimulated with VEGF-A) lysed in NP-40 lysis buffer (50 mM Tris-Cl pH 8.0, 150 mM NaCl, 1% NP-40); immunoprecipitated with antibodies against NRP1, NRP2, VEGFR1, VEGFR2 or IgG at 4°C overnight, protein A agarose; Western blot.

In assay [5] the target is VEGF receptor 2 (VEGFR2) (human (endogenous in HUVEC)) (UniProt P35968). The description is as above.
In assay [6] the target is neuropilin (NRP) 1 (human (endogenous in HUVEC)) (UniProt O14786). The assay is described as above.
For assay [7], the target named is full-length human neuropilin (NRP) 1, transfected construct (human) (UniProt O14786). The assay is described as follows: co-IP; HUVECs transfected with pEGFP-N1 and pFLAG-CMV2 constructs of full-length human SALM4, NRP1 and VEGFR2, harvested 24 h after transfection; GFP and Flag M2 antibodies used for immunoprecipitation; Western blot.
Assay [8] concerns the target full-length human VEGFR2, transfected construct (human) (UniProt P35968). The assay is described as above.

No constants are given. Whether binding was seen depends on the method and setting. Binding seen in cells or lysates may run through a third protein. Some results given as binding are weak or reduced against the parent protein; the word gives no strength.

As to “neuropilin (NRP) 1 (from UniProt O14786 22-923) (receptor)”, the binding result in assay [1] is recorded as “binds”.

B1: synaptic adhesion-like molecule 4 (SALM4) (protein, UniProt Q9BTN0 17-628)
chain: SSPPQSATPSPCPRRCRCQTQSLPLSVLCPGAGLLFVPPSLDRRAAELRLADNFIASVRRRDLANMTGLLHLSLSRNTIRHVAAGAFADLRALRALHLDGNRLTSLGEGQLRGLVNLRHLILSNNQLAALAAGALDDCAETLEDLDLSYNNLEQLPWEALGRLGNVNTLGLDHNLLASVPAGAFSRLHKLARLDMTSNRLTTIPPDPLFSRLPLLARPRGSPASALVLAFGGNPLHCNCELVWLRRLAREDDLEACASPPALGGRYFWAVGEEEFVCEPPVVTHRSPPLAVPAGRPAALRCRAVGDPEPRVRWVSPQGRLLGNSSRARAFPNGTLELLVTEPGDGGIFTCIAANAAGEATAAVELTVGPPPPPQLANSTSCDPPRDGDPDALTPPSAASASAKVADTGPPTDRGVQVTEHGATAALVQWPDQRPIPGIRMYQIQYNSSADDILVYRMIPAESRSFLLTDLASGRTYDLCVLAVYEDSATGLTATRPVGCARFSTEPALRPCGAPHAPFLGGTMIIALGGVIVASVLVFIFVLLMRYKVHGGQPPGKAKIPAPVSSVCSQTNGALGPTPTPAPPAPEPAALRAHTVVQLDCEPWGPGHEPVGP
With B1, the binding entry in assay [2], in assay [3], in assay [4], in assay [1], in assay [5] and in assay [6] was “no binding” each time.

B2: full-length human SALM4, transfected construct (protein, UniProt Q9BTN0 17-628)
chain: SSPPQSATPSPCPRRCRCQTQSLPLSVLCPGAGLLFVPPSLDRRAAELRLADNFIASVRRRDLANMTGLLHLSLSRNTIRHVAAGAFADLRALRALHLDGNRLTSLGEGQLRGLVNLRHLILSNNQLAALAAGALDDCAETLEDLDLSYNNLEQLPWEALGRLGNVNTLGLDHNLLASVPAGAFSRLHKLARLDMTSNRLTTIPPDPLFSRLPLLARPRGSPASALVLAFGGNPLHCNCELVWLRRLAREDDLEACASPPALGGRYFWAVGEEEFVCEPPVVTHRSPPLAVPAGRPAALRCRAVGDPEPRVRWVSPQGRLLGNSSRARAFPNGTLELLVTEPGDGGIFTCIAANAAGEATAAVELTVGPPPPPQLANSTSCDPPRDGDPDALTPPSAASASAKVADTGPPTDRGVQVTEHGATAALVQWPDQRPIPGIRMYQIQYNSSADDILVYRMIPAESRSFLLTDLASGRTYDLCVLAVYEDSATGLTATRPVGCARFSTEPALRPCGAPHAPFLGGTMIIALGGVIVASVLVFIFVLLMRYKVHGGQPPGKAKIPAPVSSVCSQTNGALGPTPTPAPPAPEPAALRAHTVVQLDCEPWGPGHEPVGP
As for B2, the binding entry in assay [7] and in assay [8] was “no binding” each time.

B3: neuropilin (NRP) 2 (receptor, UniProt O60462 21-931)
chain: RGQPDPPCGGRLNSKDAGYITSPGYPQDYPSHQNCEWIVYAPEPNQKIVLNFNPHFEIEKHDCKYDFIEIRDGDSESADLLGKHCGNIAPPTIISSGSMLYIKFTSDYARQGAGFSLRYEIFKTGSEDCSKNFTSPNGTIESPGFPEKYPHNLDCTFTILAKPKMEIILQFLIFDLEHDPLQVGEGDCKYDWLDIWDGIPHVGPLIGKYCGTKTPSELRSSTGILSLTFHTDMAVAKDGFSARYYLVHQEPLENFQCNVPLGMESGRIANEQISASSTYSDGRWTPQQSRLHGDDNGWTPNLDSNKEYLQVDLRFLTMLTAIATQGAISRETQNGYYVKSYKLEVSTNGEDWMVYRHGKNHKVFQANNDATEVVLNKLHAPLLTRFVRIRPQTWHSGIALRLELFGCRVTDAPCSNMLGMLSGLIADSQISASSTQEYLWSPSAARLVSSRSGWFPRIPQAQPGEEWLQVDLGTPKTVKGVIIQGARGGDSITAVEARAFVRKFKVSYSLNGKDWEYIQDPRTQQPKLFEGNMHYDTPDIRRFDPIPAQYVRVYPERWSPAGIGMRLEVLGCDWTDSKPTVETLGPTVKSEETTTPYPTEEEATECGENCSFEDDKDLQLPSGFNCNFDFLEEPCGWMYDHAKWLRTTWASSSSPNDRTFPDDRNFLRLQSDSQREGQYARLISPPVHLPRSPVCMEFQYQATGGRGVALQVVREASQESKLLWVIREDQGGEWKHGRIILPSYDMEYQIVFEGVIGKGRSGEIAIDDIRISTDVPLENCMEPISAFAGENFKVDIPEIHEREGYEDEIDDEYEVDWSNSSSATSGSGAPSTDKEKSWLYTLDPILITIIAMSSLGVLLGATCAGLLLYCTCSYSGLSSRSCTTLENYNFELYDGLKHKVKMNHQKCCSEA
Turning to B3, the binding result in assay [1] and in assay [5] was “binds” throughout.

Values taken from paper PMC6704462.
